Laboratory results as given in patent publication US20150208658A1, “METHODS OF SOIL PEST CONTROL” (Syngenta Participations AG, priority 2012, published 2015).
Some results were stated once for a whole list of compounds, not compound by compound.

Test system: Diabrotica balteata
Experiment: Diabrotica balteata (Corn Rootworm): 24-well microtiter plate with artificial diet, L2 larvae, larval mortality
Assay type: in vivo
Settings: 5 days; for control of Diabrotica balteata: application rate 200 ppm (concentration in well 18 ppm)
Description: Diabrotica balteata (Corn Rootworm)
[…] After drying, the MTP's are infested with L2 larvae (6-10 per well). After an incubation period of 5 days, samples are checked for larval mortality.
Compounds are tested according to the above method.

SMILES | control of Diabrotica balteata at 50 ppm or less | control of Diabrotica balteata
CC(=O)NCc1ccc(C2=NOC(c3cc(Cl)cc(Cl)c3)(C(F)(F)F)C2)cc1C (stereo not drawn) [Compound A8] | * (gave at least 80% control at 50 ppm or less) | at least 80%
Cc1cc(C2=NOC(c3cc(Cl)cc(Cl)c3)(C(F)(F)F)C2)ccc1CNC(=O)C(C)C (stereo not drawn) [Compound A9] | * (gave at least 80% control at 50 ppm or less) | at least 80%
CSCC(=O)NCc1ccc(C2=NOC(c3cc(Cl)cc(Cl)c3)(C(F)(F)F)C2)cc1C (stereo not drawn) [Compound A10] | * (gave at least 80% control at 50 ppm or less) | at least 80%
Cc1cc(C2=NOC(c3cc(Cl)cc(Cl)c3)(C(F)(F)F)C2)ccc1CNC(=O)C1CCCO1 (stereo not drawn) [Compound A11] | – | at least 80%
CC(C)C(=O)NCc1ccc(C2=NOC(c3cc(Cl)cc(Cl)c3)(C(F)(F)F)C2)cc1 (stereo not drawn) [Compound A12] | – | at least 80%
CSCC(=O)NCc1ccc(C2=NOC(c3cc(Cl)cc(Cl)c3)(C(F)(F)F)C2)cc1 (stereo not drawn) [Compound A13] | * (gave at least 80% control at 50 ppm or less) | at least 80%
CCC(Br)C(=O)NCc1ccc(C2=NOC(c3cc(Cl)cc(Cl)c3)(C(F)(F)F)C2)cc1Cl (stereo not drawn) [Compound A14] | * (gave at least 80% control at 50 ppm or less) | at least 80%
O=C(NCc1ccc(C2=NOC(c3cc(Cl)cc(Cl)c3)(C(F)(F)F)C2)cc1Cl)C1CCCO1 (stereo not drawn) [Compound A15] | – | at least 80%
CCC(=O)NCc1ccc(C2=NOC(c3cc(Cl)cc(Cl)c3)(C(F)(F)F)C2)cc1 (stereo not drawn) [Compound A16] | * (gave at least 80% control at 50 ppm or less) | at least 80%
CCC(Br)C(=O)NCc1ccc(C2=NOC(c3cc(Cl)cc(Cl)c3)(C(F)(F)F)C2)cc1 (stereo not drawn) [Compound A17] | * (gave at least 80% control at 50 ppm or less) | at least 80%
O=C(NCc1ccc(C2=NOC(c3cc(Cl)cc(Cl)c3)(C(F)(F)F)C2)cc1)C1CCCO1 (stereo not drawn) [Compound A18] | – | at least 80%
CS(=O)(=O)CC(=O)NCc1ccc(C2=NOC(c3cc(Cl)cc(Cl)c3)(C(F)(F)F)C2)cc1Cl (stereo not drawn) [Compound A19] | * (gave at least 80% control at 50 ppm or less) | at least 80%
C[S+]([O-])CC(=O)NCc1ccc(C2=NOC(c3cc(Cl)cc(Cl)c3)(C(F)(F)F)C2)cc1Cl (stereo not drawn) [Compound A20] | * (gave at least 80% control at 50 ppm or less) | at least 80%
N#Cc1cc(C2=NOC(c3cc(Cl)cc(Cl)c3)(C(F)(F)F)C2)ccc1-n1cncn1 (stereo not drawn) [Compound C4] | * (gave at least 80% control at 50 ppm or less) | at least 80%
Cc1cc(C2=NOC(c3cc(Cl)cc(Cl)c3)(C(F)(F)F)C2)ccc1-n1cncn1 (stereo not drawn) [Compound C5] | * (gave at least 80% control at 50 ppm or less) | at least 80%
N#Cc1cnn(-c2ccc(C3=NOC(c4cc(Cl)c(F)c(Cl)c4)(C(F)(F)F)C3)cc2C#N)c1 (stereo not drawn) [Compound D1] | * (gave at least 80% control at 50 ppm or less) | at least 80%
N#Cc1cc(C2=NOC(c3cc(Cl)c(F)c(Cl)c3)(C(F)(F)F)C2)ccc1-n1cc(F)cn1 (stereo not drawn) [Compound D2] | * (gave at least 80% control at 50 ppm or less) | at least 80%
Nc1cc(C2=NOC(c3cc(Cl)cc(Cl)c3)(C(F)(F)F)C2)ccc1-n1cccn1 (stereo not drawn) [Compound D4] | – | at least 80%
N#Cc1cc(C2=NOC(c3cc(Cl)c(F)c(Cl)c3)(C(F)(F)F)C2)ccc1-n1cc(Cl)cn1 (stereo not drawn) [Compound D6] | * (gave at least 80% control at 50 ppm or less) | at least 80%
N#Cc1cc(C2=NOC(c3cc(Cl)c(F)c(Cl)c3)(C(F)(F)F)C2)ccc1-n1cc(Br)cn1 (stereo not drawn) [Compound D7] | * (gave at least 80% control at 50 ppm or less) | at least 80%
N#Cc1cc(C2=NOC(c3cc(Cl)c(F)c(Cl)c3)(C(F)(F)F)C2)ccc1-n1cc(I)cn1 (stereo not drawn) [Compound D8] | * (gave at least 80% control at 50 ppm or less) | at least 80%
N#Cc1cc(C2=NOC(c3cc(Cl)c(F)c(Cl)c3)(C(F)(F)F)C2)ccc1-n1cc([N+](=O)[O-])cn1 (stereo not drawn) [Compound D9] | * (gave at least 80% control at 50 ppm or less) | at least 80%
CCC(=O)NC1CCc2cc(C3=NOC(c4cc(Cl)cc(Cl)c4)(C(F)(F)F)C3)ccc21 (stereo not drawn) [Compound E1] | * (gave at least 80% control at 50 ppm or less) | at least 80%
O=C(CC(F)(F)F)NC1CCc2cc(C3=NOC(c4cc(Cl)cc(Cl)c4)(C(F)(F)F)C3)ccc21 (stereo not drawn) [Compound E7] | * (gave at least 80% control at 50 ppm or less) | at least 80%
CCC(Cl)C(=O)NC1CCc2cc(C3=NOC(c4cc(Cl)cc(Cl)c4)(C(F)(F)F)C3)ccc21 (stereo not drawn) [Compound E8] | * (gave at least 80% control at 50 ppm or less) | at least 80%
